Source: article PMC10416995
These are yes or no findings as the source states them, for the method shown. Some binding calls cover weakened binding; strength is not graded here. For some of these results: Where a sequence is shown, tags or fusion partners need not be part of it. Blank lines part the entries; values can stand above or below the molecule they belong to.

The chains behind the UniProt entries cited, without tags or fusion partners. Where a name states a change or a piece, a line headed by the entry shows the natural chain unless it says otherwise. A line that says so, or that is headed by a name, gives the form on record, which may keep a tag or linker. Residues count along the entry.
UniProt P08514: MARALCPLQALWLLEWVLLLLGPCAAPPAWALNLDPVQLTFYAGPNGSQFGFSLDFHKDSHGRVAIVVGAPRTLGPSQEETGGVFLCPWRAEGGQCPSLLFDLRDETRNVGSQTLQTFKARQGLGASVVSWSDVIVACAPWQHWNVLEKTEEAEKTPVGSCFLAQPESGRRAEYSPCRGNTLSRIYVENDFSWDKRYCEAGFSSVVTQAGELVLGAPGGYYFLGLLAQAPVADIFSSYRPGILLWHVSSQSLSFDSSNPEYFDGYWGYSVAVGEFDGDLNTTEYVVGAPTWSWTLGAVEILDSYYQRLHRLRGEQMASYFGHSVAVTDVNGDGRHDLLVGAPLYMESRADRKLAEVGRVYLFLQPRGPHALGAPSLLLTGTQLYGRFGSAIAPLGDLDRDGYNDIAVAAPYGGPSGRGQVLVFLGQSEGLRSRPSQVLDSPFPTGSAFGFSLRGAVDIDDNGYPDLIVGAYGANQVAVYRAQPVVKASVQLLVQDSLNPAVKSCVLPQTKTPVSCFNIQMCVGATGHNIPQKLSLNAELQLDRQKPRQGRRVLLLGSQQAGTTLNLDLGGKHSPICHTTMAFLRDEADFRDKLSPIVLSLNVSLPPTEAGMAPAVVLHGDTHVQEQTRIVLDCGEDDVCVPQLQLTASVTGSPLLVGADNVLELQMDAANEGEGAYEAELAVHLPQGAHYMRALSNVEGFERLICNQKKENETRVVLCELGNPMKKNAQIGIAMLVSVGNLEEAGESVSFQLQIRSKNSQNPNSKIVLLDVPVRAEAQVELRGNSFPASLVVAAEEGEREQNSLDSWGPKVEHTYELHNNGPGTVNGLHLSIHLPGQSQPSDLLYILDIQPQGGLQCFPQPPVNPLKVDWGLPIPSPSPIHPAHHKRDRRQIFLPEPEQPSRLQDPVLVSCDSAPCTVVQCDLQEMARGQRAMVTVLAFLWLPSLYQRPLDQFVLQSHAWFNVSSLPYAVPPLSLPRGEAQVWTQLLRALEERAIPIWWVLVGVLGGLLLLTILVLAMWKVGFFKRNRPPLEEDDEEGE
sCD40L (residues 118–261), wild type, lacking the KGD motif (P29965, residues 118-261): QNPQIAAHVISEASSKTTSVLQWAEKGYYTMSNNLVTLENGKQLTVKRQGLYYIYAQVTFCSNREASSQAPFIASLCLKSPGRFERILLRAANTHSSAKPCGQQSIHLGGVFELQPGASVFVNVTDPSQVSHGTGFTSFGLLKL
sCD40L (118–261) HIGM1 mutant K143T (P29965, form named): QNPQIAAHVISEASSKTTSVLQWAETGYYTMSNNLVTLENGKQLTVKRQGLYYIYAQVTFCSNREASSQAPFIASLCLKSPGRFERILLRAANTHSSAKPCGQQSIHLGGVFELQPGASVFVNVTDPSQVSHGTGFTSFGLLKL
UniProt Q13444, residues 421-508: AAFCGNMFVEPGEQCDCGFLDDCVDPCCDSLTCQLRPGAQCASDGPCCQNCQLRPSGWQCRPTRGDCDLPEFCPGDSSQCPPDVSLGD

Legend:
[1] = biological target: soluble recombinant integrin αIIbβ3 (UniProt P08514); test: ELISA; as a1 (sCD40L (118–261) immobilised, soluble αIIbβ3, 1 mM Mn2+), except that the disintegrin domain of ADAM15 fused to GST or parent GST was added; both purified
[2] = biological target: T1, Fibrinogen γ-chain C-terminal peptide (residues 390–411) fused to GST; test: ELISA; γC390–411 coated on wells; soluble αIIbβ3 with 1 mM Mn2+ instead of 1 mM Ca2+ (positive control, set as 100%); both purified
T1 sequence: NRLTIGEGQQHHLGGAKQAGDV

[3] = biological target: sCD40L (residues 118–261), wild type, lacking the KGD motif (UniProt P29965); test: ELISA; as a1 (sCD40L (118–261) immobilised, soluble αIIbβ3, 1 mM Mn2+), except that the disintegrin domain of ADAM15 fused to GST or parent GST was added; both purified
[4] = biological target: sCD40L (118–261) HIGM1 mutant K143T (UniProt P29965); test: ELISA; sCD40L (WT or mutant) coated on wells; soluble αIIbβ3 (1 µg/mL) in HEPES-Tyrodes buffer with 1 mM MnCl2, 1 h at room temperature; bound αIIbβ3 detected with anti-β3 mAb AV-10; both purified
[5] = biological target: sCD40L (residues 118–261), wild type, lacking the KGD motif (UniProt P29965); test: as above
[6] = biological target: T1, Fibrinogen γ-chain C-terminal peptide (residues 390–411) fused to GST; test: ELISA; γC390–411 coated on wells (20 µg/mL); soluble αIIbβ3 (1 µg/mL) pre-incubated with sCD40L for 10 min, then 1 h at room temperature in HEPES-Tyrodes buffer with 1 mM CaCl2 in the presence of sCD40L; detected with anti-β3 mAb AV-10; both purified
[7] = biological target: recombinant integrin αIIbβ3 on the surface of CHO cells (UniProt P08514); test: flow cytometry on cells; αIIbβ3-CHO cells incubated with WT sCD40L (0–50 µg/mL) 30 min on ice, then with FITC-labeled γC390–411 30 min at room temperature; 1 mM Ca2+; only the binder purified

- binding [1]: binds
Molecule: disintegrin domain of ADAM15 (A disintegrin and metalloprotease-15) fused to GST (from UniProt Q13444 421-508) (domain or fragment)

- binding [2]: binds
- binding [3]: binds
- binding [4]: binds
- binding [5]: binds
- binding [6]: binds
Molecule: soluble recombinant integrin αIIbβ3 (from UniProt P08514 32-485; P05106 27-497) (receptor)

- binding [7]: binds
Molecule: NRLTIGEGQQHHLGGAKQAGDV (FITC-labeled) [FITC-labeled γC390–411 (fibrinogen γ-chain residues 390–411 fused to GST)]
